Experimental data reported in paper doi:10.1101/2024.05.31.596839.
These are yes or no findings as the source states them, for the method shown. Some binding calls cover weakened binding; strength is not graded here.

Legend:
Assay in all cases: ReLo
[1] = molecular target: T1, BoYb CS_MUT2 (Drosophila) (UniProt Q9VNP5)
T1 sequence: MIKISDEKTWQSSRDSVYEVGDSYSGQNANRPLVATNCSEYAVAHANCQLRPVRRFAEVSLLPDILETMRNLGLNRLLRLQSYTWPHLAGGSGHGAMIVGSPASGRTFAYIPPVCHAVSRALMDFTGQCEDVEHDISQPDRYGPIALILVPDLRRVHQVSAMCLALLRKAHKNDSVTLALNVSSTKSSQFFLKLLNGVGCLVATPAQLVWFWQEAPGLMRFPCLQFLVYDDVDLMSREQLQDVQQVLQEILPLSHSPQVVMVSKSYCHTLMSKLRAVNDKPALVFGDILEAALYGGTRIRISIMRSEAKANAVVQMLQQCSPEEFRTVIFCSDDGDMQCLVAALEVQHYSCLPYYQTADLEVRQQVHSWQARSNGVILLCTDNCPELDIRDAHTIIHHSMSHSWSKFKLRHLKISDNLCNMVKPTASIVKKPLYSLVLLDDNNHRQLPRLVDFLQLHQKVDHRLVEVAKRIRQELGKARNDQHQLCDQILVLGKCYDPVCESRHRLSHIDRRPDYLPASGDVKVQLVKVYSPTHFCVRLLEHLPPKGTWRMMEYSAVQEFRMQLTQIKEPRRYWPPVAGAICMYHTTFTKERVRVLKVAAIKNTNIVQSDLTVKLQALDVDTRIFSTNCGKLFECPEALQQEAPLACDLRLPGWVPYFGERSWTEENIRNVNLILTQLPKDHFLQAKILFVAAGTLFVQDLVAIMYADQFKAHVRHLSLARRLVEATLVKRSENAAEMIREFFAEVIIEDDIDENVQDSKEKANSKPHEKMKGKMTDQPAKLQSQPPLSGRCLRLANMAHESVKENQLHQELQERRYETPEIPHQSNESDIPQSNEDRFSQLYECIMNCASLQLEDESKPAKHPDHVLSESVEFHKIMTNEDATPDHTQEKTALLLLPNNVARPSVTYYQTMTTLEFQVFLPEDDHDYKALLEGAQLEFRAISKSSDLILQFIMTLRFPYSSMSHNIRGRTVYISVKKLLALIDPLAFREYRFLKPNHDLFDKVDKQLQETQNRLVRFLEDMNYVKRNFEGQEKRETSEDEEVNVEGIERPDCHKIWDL

[2] = molecular target: T2, BoYb CS_MUT1 (Drosophila) (UniProt Q9VNP5)
T2 sequence: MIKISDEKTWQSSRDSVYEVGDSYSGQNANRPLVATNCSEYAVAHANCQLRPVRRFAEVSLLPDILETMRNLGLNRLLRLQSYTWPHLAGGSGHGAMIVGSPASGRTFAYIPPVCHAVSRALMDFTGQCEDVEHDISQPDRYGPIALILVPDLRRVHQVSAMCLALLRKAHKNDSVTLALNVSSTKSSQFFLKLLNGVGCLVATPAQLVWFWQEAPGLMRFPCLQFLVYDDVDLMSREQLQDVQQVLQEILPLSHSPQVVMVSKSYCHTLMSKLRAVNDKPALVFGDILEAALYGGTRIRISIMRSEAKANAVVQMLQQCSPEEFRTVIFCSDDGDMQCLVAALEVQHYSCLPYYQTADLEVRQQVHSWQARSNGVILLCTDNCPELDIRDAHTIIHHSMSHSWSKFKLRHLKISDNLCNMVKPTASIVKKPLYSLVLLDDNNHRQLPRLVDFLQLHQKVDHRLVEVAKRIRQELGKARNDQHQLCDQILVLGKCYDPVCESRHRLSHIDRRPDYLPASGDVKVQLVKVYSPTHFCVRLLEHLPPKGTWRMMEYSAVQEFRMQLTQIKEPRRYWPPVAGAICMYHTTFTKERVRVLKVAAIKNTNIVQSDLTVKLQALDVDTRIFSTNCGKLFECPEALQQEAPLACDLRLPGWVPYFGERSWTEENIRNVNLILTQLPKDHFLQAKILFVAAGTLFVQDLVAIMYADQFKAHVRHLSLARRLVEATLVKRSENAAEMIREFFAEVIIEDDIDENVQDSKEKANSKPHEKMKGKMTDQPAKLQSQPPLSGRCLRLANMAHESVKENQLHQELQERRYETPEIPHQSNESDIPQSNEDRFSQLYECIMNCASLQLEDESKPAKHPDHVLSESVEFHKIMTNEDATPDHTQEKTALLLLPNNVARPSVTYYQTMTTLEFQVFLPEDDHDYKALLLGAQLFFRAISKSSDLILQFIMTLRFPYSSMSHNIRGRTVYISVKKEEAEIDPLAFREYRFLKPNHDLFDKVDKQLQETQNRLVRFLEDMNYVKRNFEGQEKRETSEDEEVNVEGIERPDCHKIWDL

[3] = molecular target: T3, SoYb CS domain (Drosophila) (UniProt Q9VL52)
T3 sequence: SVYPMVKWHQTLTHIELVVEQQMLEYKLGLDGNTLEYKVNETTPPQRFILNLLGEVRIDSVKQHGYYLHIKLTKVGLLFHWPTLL

binding [1]: no binding
binding [2]: no binding
binding [3]: binds
B1: Vret-C (domain or fragment, UniProt Q9VCU7 178-691)
chain: FRPPLVTKDDYKRGSLLATNDPIQRYLNVKYEFALERHDIYKLKDETRIPQVVLHFRSGRTIPLSTVAVTEEDKTKSLLEDGVSKCVVCQNWTDTFCKLCKMPFCNASCFADVAEQHKQACGKGEILNLDEKVGRKYPKPGLPPSGSKVRITAFEQTNVVYVRSADIQIDIAYYTVLTEVMMLGKDASKLQSTPVCGQIVLYKFEGHMSRAMVLNVDNIKEIYVVFIDFGSVEVTQLERLYECSSYLAGLTCYPVAVKLRGVPRRFVGPNIREVMYELDQSLVFNIKYSSREYDTSKGMQVVVMTEIDINRSLNRLFKTILTPVEPSVSDLGYKEDCLPYIPLHCGKNINVVVMDNTFIQCGFIYCTSIDLAYEVTKMQRDIQEYGEKIAKCATYAPPINELCIAKYEGKWRRGLSVELVGDGYPSILFIDYGNIVPTHVTDIRPYPPQFIFPIMTTQLDLIGVPEKPTDEQIKWLDKNYPIGSVITCSEITFDEETNSYSTRIEKLQEFLSLD
